This note sets out measurements from patent publication US20160251636.

By UniProt entry, the sequences of proteins in these tests, tags left out. Where a name states a change or a piece, a line headed by the entry shows the natural chain unless it says otherwise.
UniProt O14746: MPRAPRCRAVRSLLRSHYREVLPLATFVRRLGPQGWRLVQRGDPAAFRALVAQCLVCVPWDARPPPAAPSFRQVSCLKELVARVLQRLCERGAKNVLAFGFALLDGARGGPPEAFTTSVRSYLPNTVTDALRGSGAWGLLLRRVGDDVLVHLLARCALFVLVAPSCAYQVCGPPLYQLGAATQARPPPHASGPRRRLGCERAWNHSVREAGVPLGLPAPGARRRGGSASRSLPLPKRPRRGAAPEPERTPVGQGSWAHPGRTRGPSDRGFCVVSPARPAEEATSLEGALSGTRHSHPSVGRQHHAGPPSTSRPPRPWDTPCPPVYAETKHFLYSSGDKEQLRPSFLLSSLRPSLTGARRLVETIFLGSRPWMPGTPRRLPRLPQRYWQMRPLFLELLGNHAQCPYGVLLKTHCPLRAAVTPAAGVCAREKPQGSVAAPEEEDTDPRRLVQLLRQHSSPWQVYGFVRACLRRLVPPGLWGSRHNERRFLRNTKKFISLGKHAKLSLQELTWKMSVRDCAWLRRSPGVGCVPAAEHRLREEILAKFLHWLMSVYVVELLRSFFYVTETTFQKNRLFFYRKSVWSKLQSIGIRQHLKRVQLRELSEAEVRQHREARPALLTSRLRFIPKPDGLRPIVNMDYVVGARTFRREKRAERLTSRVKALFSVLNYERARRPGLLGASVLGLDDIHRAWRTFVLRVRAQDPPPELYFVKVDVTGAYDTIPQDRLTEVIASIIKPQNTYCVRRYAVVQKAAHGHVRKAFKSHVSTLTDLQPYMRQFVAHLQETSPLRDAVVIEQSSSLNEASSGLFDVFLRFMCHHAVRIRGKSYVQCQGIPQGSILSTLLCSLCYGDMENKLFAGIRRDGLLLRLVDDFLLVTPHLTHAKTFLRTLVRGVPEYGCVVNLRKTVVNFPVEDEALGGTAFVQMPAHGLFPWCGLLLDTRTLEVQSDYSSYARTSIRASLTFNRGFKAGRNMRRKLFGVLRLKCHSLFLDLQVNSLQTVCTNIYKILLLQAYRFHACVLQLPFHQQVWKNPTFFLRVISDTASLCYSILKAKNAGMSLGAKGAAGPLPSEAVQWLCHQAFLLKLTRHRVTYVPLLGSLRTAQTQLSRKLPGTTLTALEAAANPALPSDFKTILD

Construct, isoform or probe ends are uncertain for at least one entry.

The target of data set [1] is cMBP-hTERT (human telomerase reverse transcriptase) (Homo sapiens) (UniProt O14746). As to the kind of experiment: activity assay. Conditions: telomerase activity reconstituted with 500 ng hTR and 100 ng protein (direct assay, TRAP, qTRAP); qTRAP around 9000 fold higher than in one 293T cell; purified recombinant protein; label: 32P (alpha-32P-CTP, internal) in EMSA.
For data set [2] the target is unchanged. As to the kind of experiment: EMSA. The settings on record: 1 ug protein with 0.5 ug hTR in 20 ul, 1 h; 1.2% agarose 1xTBE; protein prepared with RNase A gives aggregates in wells; purified recombinant protein; label: 32P (alpha-32P-CTP, internal) in EMSA. In general terms: Mobility shift assays separate free from complexed probe on a gel.

For the sequence “GAGUGACUCUCACGAGAGCCGCGAGAGUCAGCUUGGCCAAUCCGUGCGGUCGGCGGCCGCUCCCUUUAUAAGCCGACUCGCCCGGCAGCGCACCGGGUUGCGGAGGGUGGGCCUGGGAGGGGUGGUGGCCAUUUUUUGUCUAACCCUAACUGAGAAGGGCGUAGGCGCCGUGCUUUUGCUCCCCGCGCGCUGUUUUUCUCGCUGACUUUCAGCGGGCGGAAAAGCCUCGGCCUGCCGCCUUCCACCGUUCAUUCUAGAGCAAACAAAAAAUGUCAGCUGCUGGCCCGUUCGCCCCUCCCGGGGACCUGCGGCGGGUCGCCUGCCCAGCCCCCGAACCCCGCCUGGAGGCCGCGGUCGGCCCGGGGCUUCUCCGGAGGCACCCACUGCCACCGCGAAGAGUUGGGCUCUGUCAGCCGCGGGUCUCUCGGGGGCGAGGGCGAGGUUCAGGCCUUUCAGGCCGCAGGAAGAGGAACGGAGCGAGUCCCCGCGCGCGGCGCGAUUCCCUGAGCUGUGGGACGUGCACCCAGGACUCGGCUCACACAUGC [hTR (human telomerase RNA)]”, the “activity on this sequence” value in data set [1] is “active”. Moreover, in data set [2], the binding result is reported as “binds”.
